Laboratory results as given in article PMC10163288.
Some of the results follow.

B1: il2ra_site2_2erj_sap_28_mot_ems_3hM_1508_000000265_0001_1_20_H_._113ce01fecf454417ad6f831214e9432_0001_af2_0001_0000500015_0000001_0_0001 (protein)
chain: SSSSSDQREVARRVSELLAEAAHVSEEERKELLEEARRLAEEANDPTLERYIELAARHAKSSSSS
B2: il2ra_site1_2b5i_sap_13_mot_HHH_b2_06055_af2_000000048_0001_1_19_H_._HHH_b1_06687_af2_0001_0000300028_0000001_0_0001_af2pred_dldesign_0_af2pred (protein)
chain: SSSSSPEKEKALKLFLEADKLKKAGKEEEAKKKLEEALKLAEKGKAPTLVKIIKSALEDLESSSS
B3: il2ra_site2_2erj_normal_mot_HHH_b2_07139_000000086_0001_40_57_H_._HHH_b1_02677_af2_0001_0000400010_0000001_0 (protein)
chain: SSSSDESVKAAEELAEKAHERGDEEELRLLLRFAERSAERTKDPELERLVEEIEELLERLRSSSS
B4: il2ra_site1_3nfp_sap_12_mot_HHH_b2_05589_af2_000000060_0001_42_57_H_._HHH_b2_06542_0001_0000700021_0000001_0_0001 (protein)
chain: SSSSDRADRIYKLMRAMIEAQKRGDDELVKELLEEVKELAKEAGDEVLERDIEWAERAYGSSSSS
B5: il2ra_site1_2b5i_sap_8_mot_HHH_b2_00070_000000071_0001_43_56_H_._HHH_b1_07198_0001_0000500020_0000001_0_0001_af2pred_dldesign_0_af2pred (protein)
chain: SSSSDPFELAERAFDTALKLHKEGKKEEAKKVLEEAIEELKKLKDDKHVAELELLLKRVLASSSS
B6: il2ra_site1_2b5i_normal_mot_HHH_b1_02271_000000068_0001_1_16_H_._HHH_b2_03359_af2_0001_0000400009_0000001_0_af2pred_dldesign_0_af2pred (protein)
chain: SSSSSNSEKVKALIEEAKKLKDRREALKKLEEAKKLADDADDEELSDEVEKLAKELFKKSSSSSS
B7: il2ra_site1_1z92_sap_11_mot_0a54d8a7266968de9ae0346ffe2baff0_0001_af2_000000020_0001_37_50_H_._2f69edf39d0b4cbfc537af338e4f3bc0_0001_af2_0001_0000300009_0000001 … (protein)
chain: SMIERDVRAAKKLGIPPEKIVMALVRALADVHNVPPEEAIEILLELLEELGDPLREVVEELLERK
B8: il2ra_site1_2b5i_sap_11_mot_HHH_b1_08504_af2_000000158_0001_42_54_H_._HHH_b2_03078_af2_0001_0000100008_0000001_0_0001 (protein)
chain: SSSSDDQELQELFHEASRVFRKGDLEKAKEILQEALELAEELNDEKAAEDLRFFLEWIEISSSSS
B9: il2ra_site1_2b5i_normal_mot_22370d59370c406a0c205a431f537cfa_0001_af2_000000027_0001_1_31_H_._HHH_b1_06542_af2_0001_0000200014_0000001_0 (protein)
chain: SSSSDEETRFAAEVVAKLSEEFNLDAEQDNALIRLATELLWRGVSPEEIERLLEELAERLSSSSS
B10: il2ra_site2_2erj_normal_mot_c2bf78bdce995293a161f7082e24b401_0001_af2_000000082_0001_17_32_H_._HHH_b2_06259_0001_0000100003_0000001_0 (protein)
chain: SSSSSEELKRLYELANQALEALQKGDEELVEELLEELEKLAEEADSPNVEEIIRFLEEELRSSSS
B11: il2ra_site1_2b5i_sap_11_mot_3e74c73188b6ebc5400a9f1924dc867e_0001_1_000000111_0001_17_32_H_._HHH_b2_00953_af2_0001_0000500038_0000001_0_0001_af2pred_dldesign_0_ … (protein)
chain: SSSSDPKYEELERLYKEALRLYKAGKREEALEVLEKAIKLAKELKDEKAVKELEELKERLKSSSS
B12: il2ra_site1_3nfp_sap_15_mot_HHH_b1_02637_af2_000000013_0001_1_18_H_._HHH_b1_08141_af2_0001_0000100001_0000001_0_0001_af2pred_0001_af2pred_1 (protein)
chain: NARWKLREAEKRGTEEEFVKEILEEVARNLGDPEQAKIFLKRLLRLAGIPPEEVEELVERAEELR
B13: il2ra_site2_2erj_normal_mot_HHH_b1_03833_000000078_0001_1_20_H_._HHH_b1_00122_0001_0000600031_0000001_0 (protein)
chain: SSSSEEERIEELYELIEELLKRGDVEEVNKVLEEILRLVEEIGDPKVHRLAWEALRLLHERHSSS
B14: il2ra_site2_2erj_sap_18_mot_HHH_b2_05639_000000107_0001_40_54_H_._HHH_b2_01447_af2_0001_0000300008_0000001_0_0001 (protein)
chain: SSSSDVEEEVERLLEEAEEAYEEGDLHRVYELAVRATHLAARHNNQELLRLILEFLEELSSSSSS
B15: il2ra_site2_3nfp_sap_20_mot_HHH_b1_06589_000000230_0001_37_50_H_._HHH_b2_05271_0001_0000400027_0000001_0_0001 (protein)
chain: SSSSDLEEEFRKVAAKASHLAFERGDSEAFFRIAELLFRFERTGDPRVLELLEELLKELEGSSSS
B16: il2ra_site2_3nfp_normal_mot_HHH_b1_05627_af2_000000038_0001_43_56_H_._HHH_b2_01669_0001_0000600006_0000001_0 (protein)
chain: SSSSDKSERYLEVALRLVEEAEEEGDEEVLRSHIHVALELAHAIGDEETFEKLHELLERLSSSSS
B17: il2ra_site1_3nfp_normal_mot_HHH_b1_06045_af2_000000189_0001_3_17_H_._HHH_b1_00035_0001_0000400044_0000001_1_af2pred_0001_af2pred (protein)
chain: SSSSSDAEELVEEIEKELEELLRNGNPEEALRLVERARKELKKLDNPEASEELLRFARRLSSSSS
B18: il2ra_site2_2erj_normal_mot_HHH_b2_01204_af2_000000056_0001_19_34_H_._HHH_b2_04448_0001_0000200003_0000001_0 (protein)
chain: SSSSSSDEEEERVRELLEEAREIEDLREAYRVFVEALHIASKNNNQELVEEIYKVVKELSSSSSS
B19: il2ra_site1_1z92_sap_13_mot_HHH_b1_02362_af2_000000131_0001_1_17_H_._HHH_b1_01160_af2_0001_0000200031_0000001_0_0001_af2pred_0001_af2pred (protein)
chain: DEKEAFEEHVERIARLAGVPSVEVEYSNGKYEVTLEGDEQALRAAKKAVESIARAAHLDVEVTTE
B20: il2ra_site2_2erj_normal_mot_HHH_b1_03107_000000098_0001_39_52_H_._HHH_b2_05000_0001_0000800029_0000001_0 (protein)
chain: SSSSSDQEEIWREVAELLAEAQHIDDPEEVKRLLEEARELAEEANNEYLKRYIEFVERDHSSSSS
B21: il2ra_site2_3nfp_normal_mot_HHH_b1_01086_000000225_0001_20_36_H_._HHH_b1_05415_0001_0000600036_0000001_0 (protein)
chain: SSSSSDELEEEVERLLEEAKHIPDPFERFAALADASTLVVQNDNEELLRLVREVSARLLSSSSSS
B22: il2ra_site1_3nfp_normal_mot_HHH_b1_07204_af2_000000238_0001_41_55_H_._56b2e862c5d7020fcb9d25388f5aedda_0001_0001_0000100005_0000001_0 (protein)
chain: DIAERLLEDAKKQGDLKAVSSVARAVAHLRNDPELEERIRELAEKAKENPEVQEELIELAEELLK
B23: il2ra_site1_3nfp_sap_5_mot_119b7766384adbe86006a62bce89dba1_0001_af2_000000092_0001_18_32_H_._271fd64b0493777e1e4ec5ba97d0f55e_0001_1_0001_0000100001_0000001_0_ … (protein)
chain: TEEKLERAAEWHGSEELLKLIREALELAKEKNDPHLRYELLQLALEALFKNDPELAEEIRELAEK
B24: il2ra_site2_3nfp_normal_mot_HHH_b2_08245_000000272_0001_41_55_H_._HHH_b2_03957_0001_0000400054_0000001_1 (protein)
chain: SSSSDVEERVRELLKEAEELLERGNPEEAKKVLREASKLAYEARDPELFALIAELLYKVLGSSSS
B25: il2ra_site1_2b5i_normal_mot_HHH_b1_08745_af2_000000166_0001_39_57_H_._HHH_b2_04998_0001_0000600048_0000001_0_af2pred_dldesign_0_af2pred (protein)
chain: SSSSSSGEEVRELLLEAERLRKAGKEEEAKKVLEKALELAKKLKMNLAVKFIELALESLSSSSSS
B26: il2ra_site2_2erj_normal_mot_HHH_b1_01129_af2_000000281_0001_18_33_H_._HHH_b2_07905_0001_0000400048_0000001_0 (protein)
chain: SSSSSSDEEEERVEELLERAKHISDLEEVYKLLNEALHLAAKHNDHELLRLILEFVERHSSSSSS
B27: il2ra_site1_1z92_sap_19_mot_HHH_b1_04932_af2_000000260_0001_1_19_H_._HHH_b1_03210_af2_0001_0000500015_0000001_0_0001_af2pred_0001_af2pred_1 (protein)
chain: SSSSSAEVLREALEILDELWRRGDPEEAKEVLKEAEEILEEEGNESAVRQLRRMFETAERSSSSS
B28: il2ra_site1_1z92_sap_10_mot_HHH_b2_05238_af2_000000252_0001_38_55_H_._HHH_b2_04717_0001_0000100008_0000001_0_0001_af2pred_0001_af2pred_1 (protein)
chain: SSSSDRHLKRSLKIAVEAAVKTAGLSEEQEEELRELAEELAERGVDFLEALQIVLEVAAELSSSS
B29: il2ra_site2_2erj_normal_mot_HHH_b1_04777_000000131_0001_1_19_H_._HHH_b2_05509_0001_0000100009_0000001_0 (protein)
chain: SSSSSDELEEFVEELIKEFNLSELAKFYLERWARISKELGLSEEQIKKALEQAAEADRRSSSSSS
B30: il2ra_site2_2erj_normal_mot_HHH_b2_01204_af2_000000056_0001_19_34_H_._HHH_b2_03231_af2_0001_0000300024_0000001_1 (protein)
chain: SSSSSELEERVRELLEEAREAYEEGDLEEVYRLAVEALHLVSENNDQELQEEIAEFLEELSSSSS
B31: il2ra_site2_3nfp_sap_15_mot_HHH_b2_02049_000000004_0001_42_55_H_._HHH_b2_01829_0001_0000100025_0000001_0_0001 (protein)
chain: SSSSDEEHERLWELAKEAFELLEEGNPEEAEEVLEEARELAERLDDEVALRAIEELRKLLNSSSS
B32: il2ra_site2_3nfp_sap_15_mot_HHH_b1_07089_af2_000000257_0001_1_17_H_._51cc31007119fa75359d0ea3f4aa2c22_0001_1_0001_0000100009_0000001_0_0001 (protein)
chain: SSSSSAAEDSVHVLKRELEELGDRESIEELERLLEEIKEHNDPRLLLELYALLLRLYEESSSSSS
B33: il2ra_site2_2erj_normal_mot_HHH_b1_04514_af2_000000117_0001_22_39_H_._HHH_b1_05426_0001_0000600015_0000001_0 (protein)
chain: SSSSTAEESVEELARLLRELREEGDPDQVRALAELAERYFERQGDEEAVELLREVLERLLSSSSS
B34: il2ra_site1_2b5i_normal_mot_3116615af0ee64d731c1c85d8523bf51_0001_000000216_0001_15_32_H_._HHH_b1_06770_af2_0001_0000200020_0000001_0_af2pred_dldesign_0_af2pred (protein)
chain: SSSSSDIEAKTEAALAKARELYEAGKRREALELLEKLYKELSALGREDLQDRVYKLALELSSSSS
B35: il2ra_site1_2b5i_normal_mot_HHH_b1_02271_000000068_0001_1_16_H_._HHH_b1_08334_0001_0000300016_0000001_0_af2pred_dldesign_0_af2pred (protein)
chain: SSSSSSRREKLLRIEELLKEAAKLEDLEEREKLLDEALELAKEAKDPFAVKAVEEAREELSSSSS
B36: il2ra_site1_3nfp_sap_10_mot_1dfc56a8f07a39e834a69883c800ee5d_0001_1_af2_000000099_0001_1_15_H_._HEEHE_0460_0001_0000300003_0000001_1_0001 (protein)
chain: SSSSDREEAIKVAEKILRAAWEGDREEARELLEELKEIAEKSNDPRLERLTEKLEKAIEWSSSSS
B37: il2ra_site1_3nfp_normal_mot_HHH_b2_03678_af2_000000278_0001_41_55_H_._31bff7180b20e3ed47766ceefd9934be_0001_af2_0001_0000300034_0000001_0_af2pred_0001_af2pred (protein)
chain: DEEKELAELIKKAVEKNDPELLEEVLRELLEELGNPREAAKLFHELLKKAGLDPREILEALRLVT

What follows are binders tested against il2ra, P01589 (assay: yeast display titration).

Apparent Kd, inactive:
B1 no binding seen, B2 no binding seen, B3 no binding seen, B4 no binding seen, B5 no binding seen, B6 no binding seen, B7 no binding seen, B8 no binding seen, B9 no binding seen, B10 no binding seen, B11 no binding seen, B12 no binding seen, B13 no binding seen, B14 no binding seen, B15 no binding seen, B16 no binding seen, B17 no binding seen, B18 no binding seen, B19 no binding seen, B20 no binding seen, B21 no binding seen, B22 no binding seen, B23 no binding seen, B24 no binding seen, B25 no binding seen, B26 no binding seen, B27 no binding seen, B28 no binding seen, B29 no binding seen, B30 no binding seen, B31 no binding seen, B32 no binding seen, B33 no binding seen, B34 no binding seen, B35 no binding seen, B36 no binding seen, B37 no binding seen
